The record followed here is US20180319855A1, “GENETICALLY MUTATED AEQUORIN-BASED BIOSENSORS WITH EXTRA SENSITIVITY TO CALCIUM AND IMPROVED BIOLUMINESCENCE INTENSITY” (CENTRE NATIONAL DE LA RECHERCHE SCIENTIFIQUE (CNRS), priority 2015, published 2018).

Substitutions are numbered along the chain they refer to. Numbers in names are those of the source.

Data set [1] in a line: Spectral measurement of bioluminescence emission. It is filed as physicochemical. Here is the method:
Spectral Measurement and Analysis.
Fifteen microliter aliquot of photoprotein samples was brought in contact with 200 μl saturating calcium solution (50 mM Tris-HCl, 100 mM CaCl2, pH 7.5) in a PCR tube to induce light emission. Emitted photons were collected via an optic fiber, guided into a spectrometer (Specim), and captured by an EM-CCD camera (Andor DU-897 back illuminated). Spectral calibration was performed using laser pointers (405 and 650 nm). This home-made setup, from the lab of Prof. Philippe Brûlet, allowed immediate and synchronous spectral analysis (no scanning) of emitted luminescence with 1-nm resolution (Curie et al. 2007).

The test system of a further data set is endogenous P2Y2 receptor. Put plainly: Assay of activation of endogenous P2Y2 receptor by ATP in CHO cells stably expressing photoproteins. It is filed as cell-based. The note with it: ATP at maximum and minimum response levels. How it is done:
Stably prepared CHO cells were loaded with 5 μM coelenterazine in 130 mM NaCl, 5 mM KCl, 1 mM MgCl2, 2 mM CaCl2, 5 mM NaHCO3, 20 mM N-(2-hydroxyethyl) piperazine-N′-ethanesulfonic acid (HEPES), pH 7.4 for 4 h at ambient temperature.
To produce stable CHO cell lines, the cells transfected with GA and Redquorin variant plasmids were seeded on six-well plates and grown in the same medium with addition of Geneticin sulfate (G418) (Gibco, UK) at 1 mg/ml under the same conditions with replacement of the medium by fresh medium every 2 days. After 7-10 days of selection, CHO cells were transferred into a medium without antibiotic. To select clones with the highest bioluminescence activity, one run of limiting dilution was performed. CHO cells after G418 selection were seeded on 96-well plates (approximately 0.5 cells per well) and grown in DMEM/F12 medium supplemented with 10% fetal calf serum at 37° C., 5% CO2 for up to 80-90% confluence. Before the bioluminescence measurements, the plates with monoclones of CHO cells expressing the corresponding photoprotein were duplicated and grown for up to 90-100% confluence. Then, the medium was removed and cells were loaded with coelenterazine, and bioluminescence in each well was measured according to the procedure described earlier. As a result, the CHO cell clones with the highest bioluminescence activity were selected.
Assay of Activation of Endogenous P2Y2 Receptor in CHO Cells
The CHO cell lines stably expressing each photoprotein were used in assay of activation of endogenous P2Y2 receptor by ATP. The day before the measurements, the corresponding cells were seeded on 96-well plates with DMEM/F12 medium supplemented with 10% fetal calf serum and were grown at 37° C. with 5% CO2 for up to 90-100% confluence. Then, the medium was replaced by 100 μl of coelenterazine solution per well (5 μM coelenterazine in 130 mM NaCl, 5 mM KCl, 1 mM MgCl2, 2 mM CaCl2, 5 mM NaHCO3, 20 mM HEPES, pH7.4) and the cells were incubated at 23° C. for 4 h. Emission from photoproteins in the cells was measured using a Mithras LB 940 plate luminometer. The ATP was injected at a given concentration to trigger an intracellular Ca^2+ response in the cells and the measurement started immediately. The bioluminescence was integrated over a time interval of 0.05 s for 30 s.

The mark [2] stands for this setting: CLZ-f, redquorin series, CitA, GA.
Setting [3] is: CLZ-native, redquorin series, CitA, GA.

B1: S157D: apoaequorin mutant, serine 157 replaced by aspartic acid (SEQ ID NO:12) (protein)
chain: SKLTSDFDNPRWIGRHKHMFNFLDVNHNGKISLDEMVYKASDIVINNLGATPEQAKRHKDAVEAFFGGAGMKYGVETDWPAYIEGWKKLATDELEKYAKNEPTLIRIWGDALFDIVDKDQNGAITLDEWKAYTKAAGIIQSSEDCEETFRVCDIDEDGQLDVDEMTRQHLGFWYTMDPACEKLYGGAVP
modifications: mutant aequorin
On to B1, for which, in data set [1] (CLZ-f, saturating calcium), the Spectral emission peak was determined as 475 nm.

B2: QT + AD: apoaequorin double mutant Q159T + A123D (SEQ ID NO:16) (protein)
chain: B1 chain with A123D, D157S, Q159T
modifications: mutant aequorin
Turning to B2, the Spectral emission peak in data set [1] (CLZ-f, saturating calcium) was found to be 476 nm.

B3: N121D: apoaequorin mutant, asparagine 121 replaced by aspartic acid (SEQ ID NO:9) (protein)
chain: B1 chain with N121D, D157S
modifications: mutant aequorin
Consider B3, for which the Spectral emission peak in data set [1] (CLZ-f, saturating calcium) stood at 477 nm.

B4: Q159T: apoaequorin mutant, glutamine 159 replaced by threonine (SEQ ID NO:6) (protein)
chain: B1 chain with D157S, Q159T
modifications: mutant aequorin
As to B4, the Spectral emission peak in data set [1] (CLZ-f, saturating calcium) was found to be 477 nm.

B5: QD + ND: apoaequorin double mutant Q159D + N121D (SEQ ID NO:13) (protein)
chain: B1 chain with N121D, D157S, Q159D
modifications: mutant aequorin
With B5, the Spectral emission peak in data set [1] (CLZ-f, saturating calcium) turned out to be 477 nm.

B6: A179T: apoaequorin mutant, alanine 179 replaced by threonine (SEQ ID NO:11) (protein)
chain: B1 chain with D157S, A179T
modifications: mutant aequorin
On to B6, for which the Spectral emission peak in data set [1] (CLZ-f, saturating calcium) is on record as 477 nm.

B7: QT + AT: apoaequorin double mutant Q159T + A179T (SEQ ID NO:18) (protein)
chain: B1 chain with D157S, Q159T, A179T
modifications: mutant aequorin
Turning to B7, the Spectral emission peak in data set [1] (CLZ-f, saturating calcium) is on record as 478 nm.

B8: QT + ND: apoaequorin double mutant Q159T + N121D (SEQ ID NO:14) (protein)
chain: B1 chain with N121D, D157S, Q159T
modifications: mutant aequorin
Take B8: the Spectral emission peak in data set [1] (CLZ-f, saturating calcium) is given as 478 nm.

B9: Q159D: apoaequorin mutant, glutamine 159 replaced by aspartic acid (SEQ ID NO:5) (protein)
chain: B1 chain with D157S, Q159D
modifications: mutant aequorin
For the molecule B9, in data set [1] (CLZ-f, saturating calcium), the Spectral emission peak is 478 nm.

B10: QD + AT: apoaequorin double mutant Q159D + A179T (SEQ ID NO:17) (protein)
chain: B1 chain with D157S, Q159D, A179T
modifications: mutant aequorin
As to B10, the Spectral emission peak in data set [1] (CLZ-f, saturating calcium) was 478 nm.

B11: Aeq-wt: wild-type aequorin: apoaequorin of Aequorea victoria (SEQ ID NO:1) reconstituted with coelenterazine (protein, listed as Aequorea aequorea)
chain: B1 chain with D157S
modifications: reconstituted with coelenterazine; SITE (1)..(189) wild-type aequorin
As to B11, the Spectral emission peak in data set [1] (CLZ-f, saturating calcium) was 476 nm.

B12: A123D: apoaequorin mutant, alanine 123 replaced by aspartic acid (SEQ ID NO:10) (protein)
chain: B1 chain with A123D, D157S
modifications: mutant aequorin
Take B12: in data set [1] (CLZ-f, saturating calcium), the Spectral emission peak is reported as 476 nm.

B13: Q159G: apoaequorin mutant, glutamine 159 replaced by glycine (SEQ ID NO:7) (protein)
chain: B1 chain with D157S, Q159G
modifications: mutant aequorin
Consider B13, for which the Spectral emission peak in data set [1] (CLZ-f, saturating calcium) is 478 nm.

B14: QD + AD: apoaequorin double mutant Q159D + A123D (SEQ ID NO:15) (protein)
chain: B1 chain with A123D, D157S, Q159D
modifications: mutant aequorin
For the molecule B14, in data set [1] (CLZ-f, saturating calcium), the Spectral emission peak came out at 475 nm.

B15: Redq/QT + AD: aporedquorin mutant Q159T + A123D (SEQ ID NO:25) (protein)
chain: MVSKGEEVIKEFMRFKVRMEGSMNGHEFEIEGEGEGRPYEGTQTAKLKVTKGGPLPFAWDILSPQFMYGSKAYVKHPADIPDYKKLSFPEGFKWERVMNFEDGGLVTVTQDSSLQDGTLIYKVKMRGTNFPPDGPVMQKKTMGWEASTERLYPRDGVLKGEIHQALKLKDGGHYLVEFKTIYMAKKPVQLPGYYYVDTKLDITSHNEDYTIVEQYERSEGRHHLFLGHGTGSTGSGSSGTASSEDNNMAVIKEFMRFKVRMEGSMNGHEFEIEGEGEGRPYEGTQTAKLKVTKGGPLPFAWDILSPQFMYGSKAYVKHPADIPDYKKLSFPEGFKWERVMNFEDGGLVTVTQDSSLQDGTLIYKVKMRGTNFPPDGPVMQKKTMGWEASTERLYPRDGVLKGEIHQALKLKDGGHYLVEFKTIYMAKKPVQLPGYYYVDTKLDITSHNEDYTIVEQYERSEGRHHLFLSGFDNPRWIGRHKHMFNFLDVNHNGKISLDEMVYKASDIVINNLGATPEQAKRHKDAVEAFFGGAGMKYGVETDWPAYIEGWKKLATDELEKYAKNEPTLIRIWGDALFDIVDKDQNGDITLDEWKAYTKAAGIIQSSEDCEETFRVCDIDESGTLDVDEMTRQHLGFWYTMDPACEKLYGGAVP
modifications: mutant aequorin
For B15, the Spectral emission peak in data set [1] (setting [2]) and in data set [1] (setting [3]) was 582 nm each time. In the data set on endogenous P2Y2 receptor, this molecule returned a Z-factor of 0.82.

B16: Redq/Q159D: aporedquorin (tdTomato-aequorin fusion) mutant Q159D (SEQ ID NO:21) (protein)
chain: B15 chain with D587A, T623D
modifications: mutant aequorin
For B16, the Spectral emission peak in data set [1] (setting [2]) and in data set [1] (setting [3]) was 582 nm throughout. Moreover, the Z-factor with endogenous P2Y2 receptor was 0.68.

B17: Redq/QD + AT: aporedquorin mutant Q159D + A179T (SEQ ID NO:23) (protein)
chain: B15 chain with D587A, T623D, A643T
modifications: mutant aequorin
For the molecule B17, the Spectral emission peak in data set [1] (setting [2]) and in data set [1] (setting [3]) was 582 nm in each case. The Z-factor with endogenous P2Y2 receptor was found to be 0.67.

B18: Redq/Q159T: aporedquorin (tdTomato-aequorin fusion) mutant Q159T (SEQ ID NO:22) (protein)
chain: B15 chain with D587A
modifications: mutant aequorin
B18: the Spectral emission peak in data set [1] (setting [2]) and in data set [1] (setting [3]) was 582 nm throughout. This molecule showed a Z-factor with endogenous P2Y2 receptor of 0.76.

B19: Redq/QT + AT: aporedquorin mutant Q159T + A179T (SEQ ID NO:24) (protein)
chain: B15 chain with D587A, A643T
modifications: mutant aequorin
Turning to B19, the Spectral emission peak in data set [1] (setting [2]) and in data set [1] (setting [3]) was 582 nm each time.
